Results reported in article PMC6755095.
Results are given in words; binding and its absence hold for the method and conditions named. In cells and extracts the contact can be indirect. Some entries that bind do so weakly or less than the wild type.

The chains behind the UniProt entries cited, without tags or fusion partners.
UniProt P08047: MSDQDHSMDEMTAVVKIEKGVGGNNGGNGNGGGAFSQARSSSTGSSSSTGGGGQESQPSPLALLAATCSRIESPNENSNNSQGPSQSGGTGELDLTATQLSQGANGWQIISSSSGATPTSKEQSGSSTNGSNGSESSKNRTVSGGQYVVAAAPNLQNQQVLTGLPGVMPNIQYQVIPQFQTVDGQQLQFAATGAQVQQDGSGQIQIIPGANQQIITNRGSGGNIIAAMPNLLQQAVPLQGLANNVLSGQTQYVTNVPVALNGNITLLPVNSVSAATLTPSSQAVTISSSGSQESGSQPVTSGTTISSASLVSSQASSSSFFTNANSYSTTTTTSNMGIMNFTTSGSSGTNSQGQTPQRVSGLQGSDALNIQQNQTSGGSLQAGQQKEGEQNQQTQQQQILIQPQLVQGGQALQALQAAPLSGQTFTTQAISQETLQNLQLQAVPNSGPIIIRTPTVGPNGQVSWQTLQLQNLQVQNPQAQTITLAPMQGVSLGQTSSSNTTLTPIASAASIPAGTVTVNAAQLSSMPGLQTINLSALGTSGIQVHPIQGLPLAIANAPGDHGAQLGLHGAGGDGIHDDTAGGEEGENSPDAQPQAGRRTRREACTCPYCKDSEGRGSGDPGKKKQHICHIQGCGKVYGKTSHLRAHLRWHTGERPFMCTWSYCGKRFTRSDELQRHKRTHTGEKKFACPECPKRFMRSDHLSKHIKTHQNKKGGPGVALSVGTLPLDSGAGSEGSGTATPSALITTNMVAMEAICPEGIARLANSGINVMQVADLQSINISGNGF
UniProt Q8N6T7: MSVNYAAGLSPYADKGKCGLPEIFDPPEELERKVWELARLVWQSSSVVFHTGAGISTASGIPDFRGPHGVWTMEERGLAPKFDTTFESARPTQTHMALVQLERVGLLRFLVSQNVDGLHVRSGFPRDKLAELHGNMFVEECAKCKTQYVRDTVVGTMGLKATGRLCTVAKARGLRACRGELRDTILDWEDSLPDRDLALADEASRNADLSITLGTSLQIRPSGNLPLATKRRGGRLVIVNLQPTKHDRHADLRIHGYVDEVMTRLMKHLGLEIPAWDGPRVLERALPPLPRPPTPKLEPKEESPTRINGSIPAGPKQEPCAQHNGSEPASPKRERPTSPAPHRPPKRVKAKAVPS

Biological target: Sp1 transcription factor (human (endogenous in 293T)) (UniProt P08047)
Experiment: co-IP; 2 ug Sp1-specific antibody or normal rabbit IgG added to 500 ug total protein of 293T lysate, overnight; captured on protein A sepharose; SIRT6 detected by western blotting

binding: binds
Substance: SIRT6 (Sirtuin 6) (from UniProt Q8N6T7 1-355)
